# Laboratory results taken from the supplement of paper PMC12819154, “High-throughput peptide-centric local stability assay extends protein–ligand identification to membrane proteins, tissues and bacteria” (Nature Structural & Molecular Biology, 2025).
# Sequences of proteins named here, by UniProt entry; tags and fusion partners are left off. A change or cut given only in a name is not applied to a line headed by its entry.
# UniProt Q91XC9: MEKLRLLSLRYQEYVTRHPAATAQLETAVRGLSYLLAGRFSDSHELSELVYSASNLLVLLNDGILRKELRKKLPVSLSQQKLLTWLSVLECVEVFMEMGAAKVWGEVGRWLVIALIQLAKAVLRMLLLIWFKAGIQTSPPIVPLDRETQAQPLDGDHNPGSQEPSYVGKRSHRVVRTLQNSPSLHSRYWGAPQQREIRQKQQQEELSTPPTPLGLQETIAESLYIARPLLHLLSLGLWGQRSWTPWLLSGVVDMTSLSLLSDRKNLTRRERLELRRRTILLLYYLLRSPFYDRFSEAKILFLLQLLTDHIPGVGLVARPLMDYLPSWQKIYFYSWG
# UniProt Q91WA4: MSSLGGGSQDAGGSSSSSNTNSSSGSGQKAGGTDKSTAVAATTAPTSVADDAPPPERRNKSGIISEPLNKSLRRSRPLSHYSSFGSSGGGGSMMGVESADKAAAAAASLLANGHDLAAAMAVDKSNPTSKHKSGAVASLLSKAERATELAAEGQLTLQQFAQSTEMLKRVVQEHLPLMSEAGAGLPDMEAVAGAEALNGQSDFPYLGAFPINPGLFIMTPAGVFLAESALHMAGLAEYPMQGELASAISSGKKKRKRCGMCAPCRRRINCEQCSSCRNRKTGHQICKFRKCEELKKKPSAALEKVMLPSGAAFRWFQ
# UniProt Q91X52: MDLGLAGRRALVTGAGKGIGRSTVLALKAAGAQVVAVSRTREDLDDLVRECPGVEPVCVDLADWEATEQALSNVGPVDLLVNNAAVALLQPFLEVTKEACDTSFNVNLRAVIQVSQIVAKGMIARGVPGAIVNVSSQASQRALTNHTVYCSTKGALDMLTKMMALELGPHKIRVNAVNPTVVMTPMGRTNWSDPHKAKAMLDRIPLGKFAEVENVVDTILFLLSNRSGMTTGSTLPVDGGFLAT
# UniProt Q91WG2: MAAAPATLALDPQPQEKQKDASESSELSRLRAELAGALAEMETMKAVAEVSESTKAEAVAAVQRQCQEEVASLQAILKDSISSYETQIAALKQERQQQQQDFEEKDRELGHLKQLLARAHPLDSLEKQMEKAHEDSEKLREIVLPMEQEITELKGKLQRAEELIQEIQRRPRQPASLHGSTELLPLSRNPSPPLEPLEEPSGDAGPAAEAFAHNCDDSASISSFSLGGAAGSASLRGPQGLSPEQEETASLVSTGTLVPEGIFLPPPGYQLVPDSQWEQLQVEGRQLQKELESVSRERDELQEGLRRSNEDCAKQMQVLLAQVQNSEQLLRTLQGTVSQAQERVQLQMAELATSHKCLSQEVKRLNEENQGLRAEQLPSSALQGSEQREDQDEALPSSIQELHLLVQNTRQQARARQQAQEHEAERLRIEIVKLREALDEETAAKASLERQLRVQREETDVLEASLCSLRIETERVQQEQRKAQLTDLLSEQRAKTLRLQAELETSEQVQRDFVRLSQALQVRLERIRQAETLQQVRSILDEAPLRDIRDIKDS
# UniProt Q91WA6: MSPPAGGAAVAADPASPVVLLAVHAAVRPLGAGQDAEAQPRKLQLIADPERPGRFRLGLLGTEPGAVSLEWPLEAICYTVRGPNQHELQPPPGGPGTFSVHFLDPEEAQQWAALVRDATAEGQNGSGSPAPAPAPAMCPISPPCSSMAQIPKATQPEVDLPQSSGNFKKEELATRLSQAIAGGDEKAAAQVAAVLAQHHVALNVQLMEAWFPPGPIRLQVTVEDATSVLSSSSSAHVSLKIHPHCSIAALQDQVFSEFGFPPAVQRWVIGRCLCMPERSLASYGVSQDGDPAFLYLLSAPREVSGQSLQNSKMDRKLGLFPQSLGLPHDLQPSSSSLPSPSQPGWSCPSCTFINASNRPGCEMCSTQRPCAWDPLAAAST
# UniProt Q91ZR1: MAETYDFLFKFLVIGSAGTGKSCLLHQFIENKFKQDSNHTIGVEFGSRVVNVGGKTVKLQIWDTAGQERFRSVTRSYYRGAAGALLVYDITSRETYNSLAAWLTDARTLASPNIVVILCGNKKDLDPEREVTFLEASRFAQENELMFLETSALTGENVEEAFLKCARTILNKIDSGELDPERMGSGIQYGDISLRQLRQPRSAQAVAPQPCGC
# UniProt Q8VI36, whole entry: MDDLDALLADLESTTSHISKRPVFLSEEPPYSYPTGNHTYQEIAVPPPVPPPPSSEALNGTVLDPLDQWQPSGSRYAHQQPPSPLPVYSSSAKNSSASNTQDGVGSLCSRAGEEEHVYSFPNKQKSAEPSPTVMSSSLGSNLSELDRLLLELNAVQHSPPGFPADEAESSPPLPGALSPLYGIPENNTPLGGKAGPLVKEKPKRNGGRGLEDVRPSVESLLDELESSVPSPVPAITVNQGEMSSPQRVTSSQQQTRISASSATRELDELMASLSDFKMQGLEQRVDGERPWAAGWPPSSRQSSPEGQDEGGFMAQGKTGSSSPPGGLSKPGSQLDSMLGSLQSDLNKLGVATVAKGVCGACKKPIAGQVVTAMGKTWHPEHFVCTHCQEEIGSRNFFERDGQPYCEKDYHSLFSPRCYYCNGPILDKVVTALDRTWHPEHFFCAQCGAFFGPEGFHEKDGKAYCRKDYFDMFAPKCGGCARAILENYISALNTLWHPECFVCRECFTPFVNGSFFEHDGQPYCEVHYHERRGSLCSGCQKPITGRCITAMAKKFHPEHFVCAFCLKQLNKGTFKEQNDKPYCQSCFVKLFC
# UniProt Q91W67: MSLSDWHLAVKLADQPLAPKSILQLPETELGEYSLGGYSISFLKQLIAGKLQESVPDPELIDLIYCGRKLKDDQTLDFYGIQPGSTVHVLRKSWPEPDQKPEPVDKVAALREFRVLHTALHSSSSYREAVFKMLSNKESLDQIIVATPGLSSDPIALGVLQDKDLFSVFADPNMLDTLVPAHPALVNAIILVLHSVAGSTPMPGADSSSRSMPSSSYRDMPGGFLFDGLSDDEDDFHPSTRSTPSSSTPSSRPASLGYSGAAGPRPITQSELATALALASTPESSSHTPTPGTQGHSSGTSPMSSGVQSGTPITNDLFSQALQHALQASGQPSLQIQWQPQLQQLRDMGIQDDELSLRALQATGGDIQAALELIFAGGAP
# UniProt Q91WG8: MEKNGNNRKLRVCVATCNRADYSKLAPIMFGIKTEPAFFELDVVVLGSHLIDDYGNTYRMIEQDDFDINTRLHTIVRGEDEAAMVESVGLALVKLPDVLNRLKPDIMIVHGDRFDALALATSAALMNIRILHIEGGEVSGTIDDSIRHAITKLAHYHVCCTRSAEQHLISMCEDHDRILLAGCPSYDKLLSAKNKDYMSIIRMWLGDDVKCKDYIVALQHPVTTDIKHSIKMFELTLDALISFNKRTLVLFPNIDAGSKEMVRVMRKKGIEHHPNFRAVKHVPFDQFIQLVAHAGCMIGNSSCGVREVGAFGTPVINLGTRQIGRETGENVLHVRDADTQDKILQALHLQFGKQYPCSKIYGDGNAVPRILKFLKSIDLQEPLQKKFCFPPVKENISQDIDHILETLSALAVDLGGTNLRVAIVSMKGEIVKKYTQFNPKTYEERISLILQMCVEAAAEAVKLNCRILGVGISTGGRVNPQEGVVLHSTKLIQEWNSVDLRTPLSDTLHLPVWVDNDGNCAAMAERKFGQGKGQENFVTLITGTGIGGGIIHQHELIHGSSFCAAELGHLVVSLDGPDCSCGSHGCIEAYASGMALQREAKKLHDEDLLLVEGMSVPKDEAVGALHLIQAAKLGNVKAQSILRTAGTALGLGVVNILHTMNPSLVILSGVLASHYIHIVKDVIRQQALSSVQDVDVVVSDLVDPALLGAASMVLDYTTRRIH
# UniProt Q91V64: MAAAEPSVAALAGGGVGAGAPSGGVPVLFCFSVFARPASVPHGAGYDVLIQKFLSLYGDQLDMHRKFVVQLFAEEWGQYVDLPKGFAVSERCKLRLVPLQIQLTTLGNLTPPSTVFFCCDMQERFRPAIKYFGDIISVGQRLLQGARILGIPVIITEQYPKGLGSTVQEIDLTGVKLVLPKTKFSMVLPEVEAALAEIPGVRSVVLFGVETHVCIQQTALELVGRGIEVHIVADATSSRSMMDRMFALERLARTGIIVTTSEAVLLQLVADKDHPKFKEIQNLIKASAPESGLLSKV
# UniProt Q91X46: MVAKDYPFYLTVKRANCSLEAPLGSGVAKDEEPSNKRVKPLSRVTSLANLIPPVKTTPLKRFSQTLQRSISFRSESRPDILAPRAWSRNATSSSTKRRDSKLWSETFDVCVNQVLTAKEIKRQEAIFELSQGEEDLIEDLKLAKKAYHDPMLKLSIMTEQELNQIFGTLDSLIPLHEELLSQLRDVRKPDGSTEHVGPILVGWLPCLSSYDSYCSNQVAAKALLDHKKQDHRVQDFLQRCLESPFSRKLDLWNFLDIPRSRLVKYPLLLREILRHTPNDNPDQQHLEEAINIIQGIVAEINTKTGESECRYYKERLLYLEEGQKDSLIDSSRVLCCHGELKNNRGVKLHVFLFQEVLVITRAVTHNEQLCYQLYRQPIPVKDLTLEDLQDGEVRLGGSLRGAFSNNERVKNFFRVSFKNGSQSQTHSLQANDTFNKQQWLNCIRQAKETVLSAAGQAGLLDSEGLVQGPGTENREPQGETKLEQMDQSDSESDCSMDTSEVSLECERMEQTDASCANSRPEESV
# UniProt Q8VI78: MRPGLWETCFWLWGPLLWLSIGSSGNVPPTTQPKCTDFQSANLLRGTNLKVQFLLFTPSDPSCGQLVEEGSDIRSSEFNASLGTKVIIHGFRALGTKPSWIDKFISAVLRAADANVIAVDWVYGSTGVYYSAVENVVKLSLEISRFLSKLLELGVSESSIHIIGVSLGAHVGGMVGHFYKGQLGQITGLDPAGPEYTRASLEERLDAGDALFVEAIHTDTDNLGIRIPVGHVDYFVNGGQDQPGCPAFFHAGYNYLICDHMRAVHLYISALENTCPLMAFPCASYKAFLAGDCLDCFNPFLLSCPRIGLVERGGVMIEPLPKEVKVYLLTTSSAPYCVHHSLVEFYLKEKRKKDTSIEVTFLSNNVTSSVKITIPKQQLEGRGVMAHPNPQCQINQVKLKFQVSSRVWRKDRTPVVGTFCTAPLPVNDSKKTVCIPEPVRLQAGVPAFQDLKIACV
# UniProt Q91W78: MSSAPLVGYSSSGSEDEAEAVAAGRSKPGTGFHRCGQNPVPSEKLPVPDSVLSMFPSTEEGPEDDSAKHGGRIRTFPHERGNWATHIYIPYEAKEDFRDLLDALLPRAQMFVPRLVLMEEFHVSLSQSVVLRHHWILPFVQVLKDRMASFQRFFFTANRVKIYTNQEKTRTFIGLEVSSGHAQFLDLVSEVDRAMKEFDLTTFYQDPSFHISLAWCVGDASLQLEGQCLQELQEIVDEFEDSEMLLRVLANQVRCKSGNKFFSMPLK
# UniProt Q91X72: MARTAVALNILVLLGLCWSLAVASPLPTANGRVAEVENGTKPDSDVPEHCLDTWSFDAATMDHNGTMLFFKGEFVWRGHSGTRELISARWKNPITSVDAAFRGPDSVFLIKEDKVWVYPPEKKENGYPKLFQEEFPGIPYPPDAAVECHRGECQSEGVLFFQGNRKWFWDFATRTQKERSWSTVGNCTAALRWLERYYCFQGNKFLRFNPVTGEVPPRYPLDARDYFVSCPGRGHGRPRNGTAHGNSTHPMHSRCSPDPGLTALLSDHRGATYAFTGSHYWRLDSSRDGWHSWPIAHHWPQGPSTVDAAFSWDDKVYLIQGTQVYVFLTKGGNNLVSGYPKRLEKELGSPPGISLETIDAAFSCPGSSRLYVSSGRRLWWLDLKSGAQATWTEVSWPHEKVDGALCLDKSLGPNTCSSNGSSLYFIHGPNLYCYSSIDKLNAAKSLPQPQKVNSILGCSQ
# UniProt Q91XE4: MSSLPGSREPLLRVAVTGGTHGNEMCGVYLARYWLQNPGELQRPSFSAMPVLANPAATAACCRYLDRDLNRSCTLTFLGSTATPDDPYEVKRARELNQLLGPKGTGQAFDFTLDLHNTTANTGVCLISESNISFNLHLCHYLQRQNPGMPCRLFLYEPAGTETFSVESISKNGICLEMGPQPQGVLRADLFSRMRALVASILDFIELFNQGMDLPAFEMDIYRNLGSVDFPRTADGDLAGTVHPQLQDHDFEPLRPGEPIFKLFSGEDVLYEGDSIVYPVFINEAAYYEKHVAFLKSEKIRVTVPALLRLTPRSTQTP
# UniProt Q91W59: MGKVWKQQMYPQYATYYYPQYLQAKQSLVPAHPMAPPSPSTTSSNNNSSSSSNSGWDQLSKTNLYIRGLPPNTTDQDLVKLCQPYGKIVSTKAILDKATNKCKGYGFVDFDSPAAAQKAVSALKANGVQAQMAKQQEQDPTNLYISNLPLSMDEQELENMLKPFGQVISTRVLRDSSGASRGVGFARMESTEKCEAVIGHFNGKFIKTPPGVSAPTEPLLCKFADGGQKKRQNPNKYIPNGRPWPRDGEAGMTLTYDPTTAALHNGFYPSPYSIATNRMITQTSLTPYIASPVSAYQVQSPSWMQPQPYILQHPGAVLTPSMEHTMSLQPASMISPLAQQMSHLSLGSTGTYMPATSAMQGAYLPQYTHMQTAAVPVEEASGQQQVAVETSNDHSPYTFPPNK
# The list shows a part of the results. Most entries show no effect beyond the scatter of the controls.
# Compound: CN[C@@H]1C[C@H]2O[C@@](C)([C@@H]1OC)n1c3ccccc3c3c4c(c5c6ccccc6n2c5c31)C(=O)NC4 [staurosporine]
# Assay: log2 fold change of tryptic peptide abundance, ligand vs vehicle (limited proteolysis) (log2 ratio); higher = more trypsin-susceptible (destabilized)
# Details: ligand concentration: 20 uM; sample: mouse liver crude lysate; replicate design: treated separately
row,Target,log2 fold change
1,"UniProt Q91XC9 (peptide sequence: YWGAPQQR, peptide start residue: 188)",-0.0491
2,"UniProt Q91YD3 (peptide sequence: SQLQDTLIHLIK, peptide start residue: 565)",-0.481
3,"UniProt Q91WA4 (peptide sequence: SGAVASLLSK, peptide start residue: 133)",-0.0861
4,"UniProt Q91X52 (peptide sequence: MMALELGPHK, peptide start residue: 162)",0.177
5,"UniProt Q91YE5 (peptide sequence: KPKPGSLQPQHLQSTIR, peptide start residue: 1184)",0.445
6,"UniProt Q91WG2 (peptide sequence: QQQQQDFEEKDR, peptide start residue: 96)",0.323
7,"UniProt Q91WA6 (peptide sequence: EVSGQSLQNSK, peptide start residue: 302)",0.0219
8,"UniProt Q91VM3 (peptide sequence: GHLDHEQVGSVGLVEMLHR, peptide start residue: 41)",-0.00797
9,"UniProt Q91ZR1 (peptide sequence: SCLLHQFIENK, peptide start residue: 22)",-0.142
10,"UniProt Q91YE3 (peptide sequence: VELKPNSVSK, peptide start residue: 389)",0.298
11,"UniProt Q8VI36 (peptide sequence: AGEEEHVYSFPNK, peptide start residue: 111)",-0.116
12,"UniProt Q91W67 (peptide sequence: LADQPLAPK, peptide start residue: 12)",-0.161
13,"UniProt Q91XB0 (peptide sequence: AELEVQGR, peptide start residue: 90)",-0.118
14,"UniProt Q91YP1 (peptide sequence: AKHTHETQAIPESSTK, peptide start residue: 265)",0.251
15,"UniProt Q91WG8 (peptide sequence: LAHYHVCCTR, peptide start residue: 153)",0.124
16,"UniProt Q91WG1 (peptide sequence: AEGETESPRPK, peptide start residue: 2)",-0.131

row,Target,log2 fold change
1,"UniProt Q91V64 (peptide sequence: FKEIQNLIK, peptide start residue: 277)",0.125
2,"UniProt Q91UZ4 (peptide sequence: HVDNPNGDGR, peptide start residue: 290)",0.181
3,"UniProt Q91X46 (peptide sequence: FSQTLQR, peptide start residue: 62)",0.178
4,"UniProt Q91ZT5 (peptide sequence: SLEIISTAASHSNSAIR, peptide start residue: 379)",-0.426
5,"UniProt Q8VI78 (peptide sequence: CTDFQSANLLR, peptide start residue: 35)",0.123
6,"UniProt Q91WQ3 (peptide sequence: VDAQFGGVDQR, peptide start residue: 179)",0.283
7,"UniProt Q91ZA3 (peptide sequence: VPVIRPDVAKWELSVK, peptide start residue: 545)",-0.43
8,"UniProt Q91W78 (peptide sequence: SKPGTGFHR, peptide start residue: 26)",0.155
9,"UniProt Q91VC9 (peptide sequence: GKTGQELK, peptide start residue: 57)",0.1
10,"UniProt Q91YI1 (peptide sequence: ASPHDILETIFVR, peptide start residue: 359)",0.132
11,"UniProt Q8VHQ4 (peptide sequence: SIRPPQSPPQNCSR, peptide start residue: 262)",0.0708
12,"UniProt Q8VI59 (peptide sequence: APLAGSK, peptide start residue: 516)",-0.421
13,"UniProt Q91X72 (peptide sequence: GPDSVFLIKEDK, peptide start residue: 103)",-0.248
14,"UniProt Q91XE4 (peptide sequence: SSLPGSREPLLR, peptide start residue: 2)",0.182
15,"UniProt Q91W59 (peptide sequence: YIPNGRPWPR, peptide start residue: 237)",0.342

# Two consecutive records from above, for reference:
row,Target,log2 fold change
10,"UniProt Q91YI1 (peptide sequence: ASPHDILETIFVR, peptide start residue: 359)",0.132
11,"UniProt Q8VHQ4 (peptide sequence: SIRPPQSPPQNCSR, peptide start residue: 262)",0.0708
